This passage reports binding results from paper doi:10.1101/2022.03.09.483624.

The target of the assay is T1, HA-Sin3B-BirA* (UniProt O75182).
T1 sequence: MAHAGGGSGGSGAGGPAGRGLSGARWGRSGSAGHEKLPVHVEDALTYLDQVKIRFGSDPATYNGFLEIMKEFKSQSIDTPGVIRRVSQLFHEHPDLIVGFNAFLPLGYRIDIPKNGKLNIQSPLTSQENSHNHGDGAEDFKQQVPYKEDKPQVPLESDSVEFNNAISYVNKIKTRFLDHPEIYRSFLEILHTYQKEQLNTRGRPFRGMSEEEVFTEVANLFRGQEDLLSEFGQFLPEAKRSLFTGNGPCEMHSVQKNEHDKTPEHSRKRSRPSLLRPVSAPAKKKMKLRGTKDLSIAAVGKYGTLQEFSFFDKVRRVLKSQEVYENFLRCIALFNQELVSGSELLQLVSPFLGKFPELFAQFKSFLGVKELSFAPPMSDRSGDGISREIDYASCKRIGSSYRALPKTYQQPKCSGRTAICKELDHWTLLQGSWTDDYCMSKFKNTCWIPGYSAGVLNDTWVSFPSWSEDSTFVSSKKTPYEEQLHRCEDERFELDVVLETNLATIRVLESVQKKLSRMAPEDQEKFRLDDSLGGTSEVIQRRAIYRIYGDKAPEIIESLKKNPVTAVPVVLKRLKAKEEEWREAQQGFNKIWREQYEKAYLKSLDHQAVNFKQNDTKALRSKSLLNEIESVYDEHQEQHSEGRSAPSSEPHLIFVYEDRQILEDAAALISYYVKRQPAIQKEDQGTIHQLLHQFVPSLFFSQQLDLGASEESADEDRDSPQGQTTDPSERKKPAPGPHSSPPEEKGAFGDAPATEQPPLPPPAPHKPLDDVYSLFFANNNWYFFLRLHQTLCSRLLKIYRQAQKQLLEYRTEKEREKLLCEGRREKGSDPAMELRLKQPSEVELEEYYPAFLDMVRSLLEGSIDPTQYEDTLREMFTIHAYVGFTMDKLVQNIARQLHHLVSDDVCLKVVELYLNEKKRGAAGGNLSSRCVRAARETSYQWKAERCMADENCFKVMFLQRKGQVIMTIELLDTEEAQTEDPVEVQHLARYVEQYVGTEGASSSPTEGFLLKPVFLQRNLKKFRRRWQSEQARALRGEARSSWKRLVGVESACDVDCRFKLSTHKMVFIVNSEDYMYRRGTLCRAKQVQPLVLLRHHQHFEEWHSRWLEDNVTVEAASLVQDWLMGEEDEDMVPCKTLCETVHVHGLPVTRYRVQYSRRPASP
Description: proximity labelling.

These are yes or no findings as the source states them, for the method shown. Binding seen in cells or lysates may run through a third protein. These calls come from enrichment with a bait or labelling near it, and not all partners need be listed. Sequences can lack the tags named with a protein.

Regarding 53BP1 (from UniProt Q12888 1-1972), the binding entry was “binds”.

For the substance BRCA2 (from UniProt P51587 1-3418), the binding result is “binds”.

For the substance RIF1 (from UniProt Q5UIP0 1-2472), the binding result is recorded as “binds”.
